About 3,700 (1.2%) of roughly 300,000 compounds were called active. Inconclusive means that the source gave no clear call. Such entries were picked first, then a sample of the others. The call rests on the fitted dose curve; tested in HEK293 cells. A potency beside an inconclusive call is a rough fit, not a confirmed value.
Assay: qHTS for Inhibitors of binding or entry into cells for Lassa Virus; further: nearly all actives have a fitted effect of over 50% in size
Conditions: Lassa virus pseudotype entry inhibition, cell reporter; activity change, negative = inhibition: at 37.9 µM (top of the series) unless noted
For COc1ccc(-c2nc(CSCC(=O)NCC3CCCO3)c(C)o2)cc1OC (stereo unspecified), the “activity change, negative = inhibition” value was inactive: 8.15%.
With COc1ccc(-n2nnnc2-c2ccccc2)cc1 the “activity change, negative = inhibition” value was inactive: -23.8%.
In the case of O=C(N/N=C/c1ccc(O)c(O)c1)c1cc(-c2ccccc2)nc2ccccc12, the Potency is reported as inconclusive: 35.5 µM [inhibitor, single point].
With Cc1ccc(C)c(N(C(=O)CNC(=O)c2ccco2)C(C(=O)NC2CCCCC2)c2ccncc2)c1 (stereo unspecified) the “activity change, negative = inhibition” value was inactive: -2.36%.
In the case of O=C(CSc1nnc(-c2ccc(F)cc2)o1)c1ccc2c(c1)OCCO2, the “activity change, negative = inhibition” value is reported as inactive: -1.71%.
For Cc1ccc(N=C2NC(=O)/C(=C/c3cccs3)S2)cc1C, the Potency was inconclusive: 2 µM [inhibitor, full curve].
With Cc1ccc(N(CC(O)CN2CCOCC2)S(=O)(=O)c2ccc([N+](=O)[O-])cc2)cc1 (stereo unspecified) the Potency was inconclusive: 0.794 µM [activator, single point].
For Cc1ccc(N=C2NC(=O)/C(=C/c3cccn3C)S2)c(C)c1, the Potency was inconclusive: 11.2 µM [inhibitor, partial curve, poor fit].
In the case of O=C(N/N=C/c1ccccn1)c1cccs1, the “activity change, negative = inhibition” value is reported as inactive: -15.8%.
In the case of O=C(CSc1n[nH]c(-c2ccccc2)n1)Nc1ccc(F)cc1F, the Potency is reported as inconclusive: 17.8 µM [inhibitor, single point].
For Cc1ccc(S(=O)(=O)N2CCN(C(=O)CCCOc3ccc(Cl)cc3C)CC2)cc1, the Potency was inconclusive: 35.5 µM [inhibitor, single point].
In the case of O=C(Nc1ccc(S(=O)(=O)NCC2CCCO2)cc1)c1ccc(Cl)cc1[N+](=O)[O-] (stereo unspecified), the “activity change, negative = inhibition” value is reported as inactive: 6.24% [at 46.1 µM].
For COC(=O)c1c(NC(=O)c2ccoc2C)sc(C)c1C, the Potency was inconclusive: 11.2 µM [activator, single point].
With Cc1cc(C)c(S(=O)(=O)N2CCCCC2)cc1N(C)S(=O)(=O)c1ccc(Cl)cc1 the Potency was inconclusive: 32.6 µM [inhibitor, partial curve, poor fit].
In the case of O=C(Cn1c(=O)nc(-c2ccccc2)c2ccccc21)NCc1ccc(Cl)cc1, the Potency is reported as inconclusive: 3.55 µM [inhibitor, full curve, poor fit].
For CC(=O)c1cccc(NC(=O)CN2CCc3cc4c(cc3C2C)OCCCO4)c1 (stereo unspecified), the Potency was inconclusive: 0.794 µM [inhibitor, full curve, poor fit].
With COC(=O)c1cccnc1-n1c(=O)c2cccnc2n(CC(=O)Nc2ccccc2F)c1=O the “activity change, negative = inhibition” value was inactive: 0.855% [at 46.1 µM].
For CSc1nnc(C)c(=O)n1COC(=O)/C=C/c1ccc2c(c1)OCO2, the “activity change, negative = inhibition” value was inactive: 5.21% [at 46.1 µM].
With COc1cc(CNc2ccc3c(c2)OCCO3)ccc1OCC(N)=O the “activity change, negative = inhibition” value was inactive: 26.1% [at 46.1 µM].
In the case of N/C(=N\OC(=O)c1csnn1)c1ccc(C(F)(F)F)cc1, the Potency is reported as inconclusive: 5.01 µM [activator, partial curve, poor fit].
With Cc1nc(SCC(=O)O)c(C#N)c(C)c1CC(=O)c1ccccc1 the Potency was inconclusive: 35.5 µM [activator, partial curve, poor fit].
For CCC(C)NS(=O)(=O)c1ccc(S(=O)(=O)N(CCc2ccc(OC)c(OC)c2)Cc2cccs2)cc1 (stereo unspecified), the Potency was inconclusive: 7.94 µM [inhibitor, partial curve, poor fit].
With O=[N+]([O-])c1cccc(N=Nc2ccc(O)cc2O)c1 the Potency was inconclusive: 0.562 µM [inhibitor, full curve, poor fit].
In the case of Clc1cccc(-n2ncc3c(N4CCC(Cc5ccccc5)CC4)ncnc32)c1, the Potency is reported as inconclusive: 12.6 µM [activator, single point].
In the case of CC(Oc1ccc(Cl)cc1Cl)C(=O)Nc1ccc(N2CCN(C)CC2)cc1 (stereo unspecified), the Potency is reported as inconclusive: 8.2 µM [inhibitor, partial curve].
In the case of CCCCc1nnc(NC(=O)c2ccc3c(=O)n4c(nc3c2)CCC4)s1, the “activity change, negative = inhibition” value is reported as inactive: -1.84%.
In the case of O=C(NCc1ccc(Cl)cc1)C(=O)NCC(c1cccs1)S(=O)(=O)c1cccs1 (stereo unspecified), the Potency is reported as inconclusive: 35.5 µM [inhibitor, single point].
With COc1ccc(CCN(C)C(=S)Nc2ccc(SC(F)F)cc2)cc1OC the Potency was inconclusive: 35.5 µM [inhibitor, single point].
For O=C(NC1=NCCS1)c1ccc(Br)s1, the “activity change, negative = inhibition” value was inactive: -7.6%.
For CC(=O)Nc1ccc(C2(c3ccc(NC(C)=O)cc3)NC(=O)c3ccccc32)cc1, the Potency was inconclusive: 0.891 µM [inhibitor, single point].
With Cc1ccc2nc(-c3ccc(SCC(=O)Nc4nnc(C)s4)nc3)[nH]c2c1 the Potency was inconclusive: 1 µM [activator, partial curve, poor fit].
In the case of COc1ccccc1Nc1nnc(SCc2nnc(-c3cc(OC)c(OC)c(OC)c3)o2)s1, the “activity change, negative = inhibition” value is reported as inactive: -26.7%.
With CNC(=O)c1c(NC(=O)C(C)C)sc2c1CCC2 the “activity change, negative = inhibition” value was inactive: 1.54%.
With CCc1ccccc1NC(=O)c1ccccc1Sc1ccc([N+](=O)[O-])cc1Cl the “activity change, negative = inhibition” value was inactive: 7.79%.
In the case of COc1ccc(C2(CNC(=O)c3cccc([N+](=O)[O-])c3)CCOCC2)cc1OC, the Potency is reported as inconclusive: 1.41 µM [inhibitor, single point].
For COc1ccc(CC(=O)OCC(=O)Nc2ccc3c(c2)OCO3)cc1, the Potency was inconclusive: 8.91 µM [activator, partial curve, poor fit].
With N#Cc1cccc(Nc2c3c(nc4ccccc24)CCCC3)c1 the Potency was inconclusive: 23.1 µM [inhibitor, single point].
In the case of O=C(NCC(c1ccc2c(c1)OCO2)N1CCOCC1)c1cccc(Cl)c1 (stereo unspecified), the “activity change, negative = inhibition” value is reported as inactive: -5.44% [at 46.1 µM].
With CCOC(=O)c1ccccc1NC(=O)Cn1c(=O)n(-c2cccc(C)c2)c(=O)c2c1c1cc(C)ccc1n2C the Potency was inconclusive: 22.4 µM [activator, single point].
For O=c1cc(CCl)nc(Cc2c(Cl)cccc2Cl)[nH]1, the Potency was inconclusive: 12.6 µM [inhibitor, partial curve].
With Cc1sc2ncnc(N3CCC(C(=O)Nc4ccccc4C(C)(C)C)CC3)c2c1C the “activity change, negative = inhibition” value was inactive: -2.59% [at 46.1 µM].
For CCCCN(C(=O)Cc1coc2cc(C)c(C)cc12)c1c(N)n(Cc2ccccc2)c(=O)[nH]c1=O, the “activity change, negative = inhibition” value was inactive: 9.38% [at 46.1 µM].
In the case of COc1ccccc1C1Nc2ccccc2-n2c(-c3ccccc3)c3c(=O)n(C)c(=O)n(C)c3c21 (stereo unspecified), the Potency is reported as inconclusive: 2.82 µM [inhibitor, full curve].
In the case of COc1ccccc1/C=C1\SC(=S)N(CCC(=O)Nc2cc(C)on2)C1=O, the “activity change, negative = inhibition” value is reported as inactive: -22.2%.
In the case of Cc1ccccc1CCNC(=O)c1ccc2c(c1)nc1n2CCC(C)C1 (stereo unspecified), the Potency is reported as inconclusive: 10 µM [activator, single point].
With O=c1c2cnn(-c3ccccc3)c2ncn1Cc1ccccc1 the Potency was inconclusive: 2 µM [inhibitor, full curve, poor fit].
In the case of Cc1ccc(C)c(SCC(=O)Nc2cccc(S(=O)(=O)NC3=NCCCCC3)c2)c1, the “activity change, negative = inhibition” value is reported as inactive: -7.57%.
In the case of O=C(O)C1C2CCC(C2)C1C(=O)Nc1nc2ccccc2s1 (stereo unspecified), the “activity change, negative = inhibition” value is reported as inactive: -2.69%.
With COc1cccc(-c2nc(-c3ccccc3)no2)c1 the Potency was active: 14.1 µM.
In the case of CCOc1ccccc1C(=O)n1nc(C)cc1C, the “activity change, negative = inhibition” value is reported as inactive: 16%.
For COc1ccc(-n2ncc(C(=O)NCCc3ccsc3)c2C2CCN(C(=O)OC(C)(C)C)CC2)cc1, the Potency was inconclusive: 1.26 µM [inhibitor, full curve, poor fit].
In the case of Cc1ccc(S(=O)(=O)N(C)C)cc1NC(=S)NC(C)CCC(C)C (stereo unspecified), the Potency is reported as inconclusive: 5.01 µM [inhibitor, partial curve, poor fit].
With Cc1cc(CN(C)C(=O)c2cc(COc3ccc(F)cc3Cl)on2)n[nH]1 the Potency was inconclusive: 3.98 µM [activator, full curve].
With NNC(=O)c1ccc(Cn2cc(Br)cn2)cc1 the Potency was inconclusive: 18.4 µM [inhibitor, partial curve, poor fit].
With CSc1nsc(SCC(=O)Nc2ccc3c(c2)OCCO3)n1 the Potency was inconclusive: 29.1 µM [inhibitor, single point].
For COc1ccc(Nc2cc(C(=O)NCCCN3CCN(c4ccc(OC)cc4)CC3)c3ccccc3n2)cc1, the Potency was inconclusive: 15.8 µM [inhibitor, single point].
With CC1CC(C)CN(CC(=O)c2c[nH]c3ccccc23)C1 (stereo unspecified) the “activity change, negative = inhibition” value was inactive: -0.562% [at 46.1 µM].
In the case of CCCSc1nnc(-c2cccc(S(=O)(=O)N(C)C)c2)n1-c1cc(OC)ccc1OC, the “activity change, negative = inhibition” value is reported as inactive: -4.66%.
With Cc1ccc(NC(=S)NC2CC3CCCC(C2)N3Cc2cccs2)cc1 (stereo unspecified) the Potency was inconclusive: 25.9 µM [inhibitor, single point].
For Cc1ccc(S(=O)(=O)c2ccc([N+](=O)[O-])o2)cc1, the Potency was inconclusive: 15.8 µM [inhibitor, partial curve, poor fit].
With CCOC(=O)c1ccc2nc(NC(NC(C)=O)(C(=O)OC)C(F)(F)F)sc2c1 (stereo unspecified) the Potency was inconclusive: 0.13 µM [activator, full curve, poor fit].
In the case of O=C(C(=O)N1CCc2ccccc2C1)c1cn(CC(=O)N2CCCCC2)c2ccccc12, the Potency is reported as inconclusive: 1.26 µM [inhibitor, single point].
With Cc1ccc(-c2nc3cccnc3s2)cc1NC(=O)C1c2ccccc2Oc2ccccc21 the Potency was inconclusive: 25.9 µM [activator, single point].
For Cc1ccc(NC(=O)CSc2ccc(-c3cccs3)nn2)cc1Cl, the “activity change, negative = inhibition” value was inactive: 11.2% [at 46.1 µM].
In the case of O=C(O)c1cc2ncc(CCO)cn2n1, the “activity change, negative = inhibition” value is reported as inactive: 22.4% [at 46.1 µM].
With COc1ccc(OC)c(NC(=O)CN(C)CCOc2ccc(Br)cc2)c1 the Potency was inconclusive: 35.5 µM [inhibitor, single point].
For c1ccc(-c2nc(NCCCN3CCOCC3)c3ccccc3n2)cc1, the “activity change, negative = inhibition” value was inactive: -9.65%.
With Cc1ccccc1NC(=S)N(CCN1CCOCC1)Cc1ccccc1F the “activity change, negative = inhibition” value was inactive: 6.95%.
In the case of O=C(c1ccco1)N1CCN(C(=O)c2ccc(COc3ccc4c(c3)CCC4)o2)CC1, the Potency is reported as active: 14.1 µM.
In the case of CCCc1nc2c(=O)n(C)c(=O)nc-2n(C)n1, the Potency is reported as active: 1 µM.
In the case of Cc1ccc(C(=O)CCS(=O)(=O)c2ccc(Cl)cc2)cc1, the Potency is reported as inconclusive: 28.2 µM [inhibitor, single point].

Reference: PubChem BioAssay AID540256 (National Center for Advancing Translational Sciences (NCATS), 2011)
On the % scale 0 is the no-effect control and ±100 the full control effect; potency means the concentration at half of the fitted maximal effect.
